The supplement of paper PMC3334620
Whole data set: some 33,000 sequences, median “E-score (-0.5 to 0.5)” near -0.0034, cut for the highest 2% near 0.25. The list shows a part of the results.

What follows are sequences tested against T1, Yap3 (UniProt P38749) (assay: PBM E-score (8-mer binding enrichment) (E-score (-0.5 to 0.5)); higher = stronger / more preferred TF binding). Details: protein concentration: 100 nM; construct: GST-full length.
T1 sequence: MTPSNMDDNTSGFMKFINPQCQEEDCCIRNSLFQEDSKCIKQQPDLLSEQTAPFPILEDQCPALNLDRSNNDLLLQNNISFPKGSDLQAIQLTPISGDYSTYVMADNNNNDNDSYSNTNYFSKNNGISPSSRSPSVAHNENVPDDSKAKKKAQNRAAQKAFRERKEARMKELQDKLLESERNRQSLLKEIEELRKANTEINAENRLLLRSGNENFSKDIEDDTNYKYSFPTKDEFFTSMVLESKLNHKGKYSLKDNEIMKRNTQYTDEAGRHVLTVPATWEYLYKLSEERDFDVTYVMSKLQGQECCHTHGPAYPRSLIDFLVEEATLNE
Method in brief: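 Each ungapped eight-base word and its reverse complement, pooled, received an E-score from the Universal PBM Analysis Suite. Underlying scans, normalised with masliner, recorded fluorescent anti-GST bound to GST-tagged yeast transcription factors. These were applied at about 100-200 nM to universal all-10-mer Agilent arrays double-stranded by primer extension.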

**Q.** With AGAATAAA as the sequence, how does the “PBM E-score” value read?
**A.** Its value is 0.261.

**Q.** With ACAGAGTG as the sequence, how does the “PBM E-score” value read?
**A.** The value was -0.0958.

**Q.** Which “PBM E-score” value does the source give for CTTCTTCA here?
**A.** The value was -0.0341.

**Q.** For GGTCGACC, which “PBM E-score” value is on record?
**A.** The value was 0.0928.

**Q.** For CGCAATGA, which “PBM E-score” value is on record?
**A.** The value was 0.0722.

**Q.** How did the “PBM E-score” value turn out when ATCAGTAA was run?
**A.** Its value is 0.159.

**Q.** How did the “PBM E-score” value turn out when GCAATAGC was run?
**A.** Its value is 0.0725.

**Q.** How did the “PBM E-score” value turn out when GCAAAATA was run?
**A.** Its value is 0.182.

**Q.** CATGCCCG was tested. Which “PBM E-score” value did it give?
**A.** The value was 0.0256.

**Q.** Which “PBM E-score” value does the source give for AACTATCT here?
**A.** Its value is 0.1.

**Q.** CTATTCGC was tested. Which “PBM E-score” value did it give?
**A.** Its value is 0.0835.

**Q.** Which “PBM E-score” value does the source give for GTAATCAA here?
**A.** Its value is 0.226.

**Q.** CTCGTCGA was tested. Which “PBM E-score” value did it give?
**A.** Its value is -0.0244.

**Q.** Which “PBM E-score” value does the source give for GCCTCCCC here?
**A.** The value was -0.0722.

**Q.** AACTGAAT was tested. Which “PBM E-score” value did it give?
**A.** Its value is -0.124.

**Q.** For AAGGGGTC, which “PBM E-score” value is on record?
**A.** Its value is -0.275.

**Q.** For GCAGACGC, which “PBM E-score” value is on record?
**A.** Its value is -0.143.

**Q.** How did the “PBM E-score” value turn out when GAGGTACA was run?
**A.** The value was 0.0709.

**Q.** For CTGAGCAC, which “PBM E-score” value is on record?
**A.** Its value is -0.0962.

**Q.** For AGTCCTGC, which “PBM E-score” value is on record?
**A.** The value was -0.177.

**Q.** CCCCCTGC was tested. Which “PBM E-score” value did it give?
**A.** The value was -0.344.

**Q.** With CCCTGGCG as the sequence, how does the “PBM E-score” value read?
**A.** Its value is -0.12.

**Q.** With AGGCAATG as the sequence, how does the “PBM E-score” value read?
**A.** The value was -0.0865.

**Q.** CTCGTGCC was tested. Which “PBM E-score” value did it give?
**A.** Its value is -0.121.

**Q.** Which “PBM E-score” value does the source give for ATTCATAA here?
**A.** Its value is 0.243.

**Q.** Which “PBM E-score” value does the source give for CCGCACAG here?
**A.** The value was -0.117.

**Q.** With CGGCAAGC as the sequence, how does the “PBM E-score” value read?
**A.** Its value is -0.0808.

**Q.** With ACCTATTA as the sequence, how does the “PBM E-score” value read?
**A.** The value was 0.11.

**Q.** Which “PBM E-score” value does the source give for ATAAACTC here?
**A.** The value was 0.0774.

**Q.** With CAGTATCG as the sequence, how does the “PBM E-score” value read?
**A.** The value was 0.00063.

**Q.** How did the “PBM E-score” value turn out when ACAAGCCA was run?
**A.** Its value is -0.126.

**Q.** For CCATGACA, which “PBM E-score” value is on record?
**A.** The value was 0.113.

**Q.** How did the “PBM E-score” value turn out when CTGCTGGA was run?
**A.** The value was -0.158.

**Q.** With CGACATTC as the sequence, how does the “PBM E-score” value read?
**A.** The value was 0.0117.

**Q.** AGAGTACT was tested. Which “PBM E-score” value did it give?
**A.** Its value is 0.0593.

**Q.** How did the “PBM E-score” value turn out when CAACTTGG was run?
**A.** The value was 0.145.

**Q.** For AGGGTGAG, which “PBM E-score” value is on record?
**A.** Its value is -0.175.

**Q.** GACCTTAA was tested. Which “PBM E-score” value did it give?
**A.** The value was -0.113.

**Q.** How did the “PBM E-score” value turn out when CTATATCC was run?
**A.** Its value is 0.119.

**Q.** Which “PBM E-score” value does the source give for AGGGTGAC here?
**A.** The value was 0.0105.

**Q.** With ATATCCTC as the sequence, how does the “PBM E-score” value read?
**A.** Its value is 0.199.

**Q.** GTGACCAA was tested. Which “PBM E-score” value did it give?
**A.** Its value is 0.0953.

**Q.** How did the “PBM E-score” value turn out when ATGATACG was run?
**A.** The value was 0.207.

**Q.** Which “PBM E-score” value does the source give for CTCTGGCC here?
**A.** The value was -0.263.

**Q.** GACGGGAA was tested. Which “PBM E-score” value did it give?
**A.** Its value is -0.00643.

**Q.** How did the “PBM E-score” value turn out when GAAGTCCC was run?
**A.** The value was -0.26.

**Q.** For ACCGGCCG, which “PBM E-score” value is on record?
**A.** The value was -0.114.

**Q.** With TGTACCAA as the sequence, how does the “PBM E-score” value read?
**A.** The value was 0.0503.

**Q.** How did the “PBM E-score” value turn out when GAACCCAC was run?
**A.** Its value is 0.028.

**Q.** For AGAGTTGA, which “PBM E-score” value is on record?
**A.** Its value is 0.0468.

**Q.** How did the “PBM E-score” value turn out when CATTTCTA was run?
**A.** The value was 0.11.

**Q.** With AGATTTCG as the sequence, how does the “PBM E-score” value read?
**A.** The value was 0.0612.

**Q.** How did the “PBM E-score” value turn out when AGCTAGCG was run?
**A.** Its value is -0.0438.

**Q.** Which “PBM E-score” value does the source give for ATACGTCC here?
**A.** The value was -0.169.

**Q.** For AGGATACC, which “PBM E-score” value is on record?
**A.** The value was -0.0219.

**Q.** How did the “PBM E-score” value turn out when AGGCACTA was run?
**A.** Its value is -0.127.

**Q.** Which “PBM E-score” value does the source give for AATCAATT here?
**A.** Its value is 0.256.

**Q.** Which “PBM E-score” value does the source give for AAACACGT here?
**A.** Its value is 0.0575.

**Q.** ACAAGTCG was tested. Which “PBM E-score” value did it give?
**A.** Its value is -0.189.

**Q.** ACAGATCC was tested. Which “PBM E-score” value did it give?
**A.** The value was 0.145.

**Q.** How did the “PBM E-score” value turn out when AGGTGGAA was run?
**A.** The value was 0.0811.

**Q.** CCTATAAG was tested. Which “PBM E-score” value did it give?
**A.** The value was 0.0487.

**Q.** With AGTTTAGA as the sequence, how does the “PBM E-score” value read?
**A.** Its value is 0.182.

**Q.** Which “PBM E-score” value does the source give for GTAACGTA here?
**A.** The value was 0.0751.

**Q.** Which “PBM E-score” value does the source give for CTTTATCC here?
**A.** The value was 0.00568.

**Q.** With ATTGGCTA as the sequence, how does the “PBM E-score” value read?
**A.** The value was 0.104.

**Q.** How did the “PBM E-score” value turn out when AATTCTAG was run?
**A.** Its value is 0.0261.

**Q.** For CAAGCAAC, which “PBM E-score” value is on record?
**A.** Its value is 0.111.

**Q.** How did the “PBM E-score” value turn out when ACCGAAGA was run?
**A.** Its value is 0.0139.

**Q.** For CTCGGCAA, which “PBM E-score” value is on record?
**A.** Its value is -0.00099.

**Q.** Which “PBM E-score” value does the source give for CCTCCTTC here?
**A.** Its value is -0.234.

**Q.** With AAAGAAGC as the sequence, how does the “PBM E-score” value read?
**A.** Its value is 0.0805.

**Q.** Which “PBM E-score” value does the source give for CCAAGCGC here?
**A.** Its value is -0.0338.

**Q.** ATGTGAAT was tested. Which “PBM E-score” value did it give?
**A.** The value was 0.124.

**Q.** AAATCCAT was tested. Which “PBM E-score” value did it give?
**A.** The value was 0.29.

**Q.** AGCTACAG was tested. Which “PBM E-score” value did it give?
**A.** The value was -0.113.

**Q.** How did the “PBM E-score” value turn out when AGTTTACA was run?
**A.** The value was 0.118.

**Q.** How did the “PBM E-score” value turn out when ATCCGGCG was run?
**A.** The value was -0.0357.

**Q.** For ATACGGAT, which “PBM E-score” value is on record?
**A.** The value was 0.121.

**Q.** Which “PBM E-score” value does the source give for ACAGCGCA here?
**A.** Its value is -0.0611.

**Q.** With ACAATTGG as the sequence, how does the “PBM E-score” value read?
**A.** The value was -0.0674.

**Q.** With GAGCTTGC as the sequence, how does the “PBM E-score” value read?
**A.** Its value is -0.257.

**Q.** AACATTTC was tested. Which “PBM E-score” value did it give?
**A.** The value was 0.123.

**Q.** AGAGAGAC was tested. Which “PBM E-score” value did it give?
**A.** The value was -0.143.

**Q.** GCGAATTA was tested. Which “PBM E-score” value did it give?
**A.** Its value is 0.241.

**Q.** GACGTGGA was tested. Which “PBM E-score” value did it give?
**A.** The value was -0.0188.
